The list is a part of this screen's results and no random one: it gathers tests that were run many times, whatever their T/C, doses with no T/C, and many T/C values between a quarter and a half above the control. Other doses and runs of a compound stand elsewhere. T/C: endpoint of the treated group in % of that of the vehicle group. Some entries give survivors of the animals treated and no T/C: the source files T/C as zero there, which appears to mark a toxic dose or a test without result, not a measured value. Some doses without a T/C left all or most animals alive at the check, yet need not have been tolerated: survival well below the control is almost never listed, so the zero probably covers shortened survival too. Counts of survivors are from the toxicity check (mostly the fifth day) where no day follows; animals may have died later. Schedule codes are those of the source, read here as Q, the interval in days (D) or hours (H), X, the number of doses. Some entries hold several experiments; the results are listed from low to high. Brackets with × stand for listed records that agree. Where survival is the endpoint, the PubChem record calls one and a half times the control and up active, and a quarter to a half above the control has no call in these data; cut-offs in other NCI protocols can differ. Some T/C values are followed by the survivors on the day toxicity was checked, most often the fifth; without a count, all were alive then.
System: BDF1 mice, B16 melanoma ip, median survival T/C
Assay: NCI In Vivo Anticancer Drug Screen. Data for tumor model B16 Melanoma (intraperitoneal) in B6D2F1 (BDF1) mice
Settings: T/C endpoint: median survival time, higher T/C = longer survival
Method: The antitumor activity of compounds was measured in mice bearing transplantable tumors. Survival or tumor size were measured and the results are expressed as the measurement made in the treated group (T) divided by the measurement made in the vehicle treated control group (C). The tumor model used in this assay is B16 Melanoma (intraperitoneal) in B6D2F1 (BDF1) mice

[1] = dose: 400.0 mg/kg/injection, schedule: Q01DX009 (ip), vehicle: saline with Tween-80
[2] = dose: 200.0 mg/kg/injection, schedule: Q01DX009 (ip), vehicle: saline
[3] = dose: 400.0 mg/kg/injection, schedule: Q01DX009 (ip), vehicle: Klucel (hydroxypropylcellulose) (HPC)
[4] = dose: 0.5 mg/kg/injection, schedule: Q01DX009 (ip), vehicle: other
[5] = dose: 1.0 mg/kg/injection, schedule: Q01DX009 (ip), vehicle: other

## Nc1cc(S(N)(=O)=O)ccc1SSc1ccc(S(N)(=O)=O)cc1N
[1]
  survivor count: 5 of 6

## NC(=S)N/N=C/c1ccc(OC(=O)COc2ccccc2)cn1
dose: 100.0 mg/kg/injection, schedule: Q01DX009 (ip), vehicle: saline with Tween-80
  T/C: 126 and 139 % of control
dose: 200.0 mg/kg/injection, schedule: Q01DX009 (ip), vehicle: saline with Tween-80
  T/C: 129 and 131 % of control
[1]
  survivor count: 10 of 10
dose: 800.0 mg/kg/injection, schedule: Q01DX009 (ip), vehicle: saline with Tween-80
  survivor count: 10 of 10

## CC1(C)C(=O)NC(=O)C1(C)C
dose: 3.12 mg/kg/injection, schedule: Q01DX009 (ip), vehicle: saline
  survivor count: 10 of 10
dose: 100.0 mg/kg/injection, schedule: Q01DX009 (ip), vehicle: saline
  survivor count: 5 of 10
[2]
  survivor count: 0 of 10
dose: 400.0 mg/kg/injection, schedule: Q01DX009 (ip), vehicle: saline
  survivor count: 0 of 10

## Cc1ccc(S(=O)(=O)NC(=O)C2C(=O)CC3(CCCCC3)CC2=O)cc1
dose: 200.0 mg/kg/injection, schedule: Q01DX009 (ip), vehicle: Klucel (hydroxypropylcellulose) (HPC)
  survivor count: 3 of 10
[3]
  survivor count: 0 of 10 and 8 of 10

## CC(C)N1CSC(=S)N(Cc2ccccc2)C1
[3]
  survivor count: 10 of 10

## Cc1ccc(S(=O)(=O)[O][Pb]([CH3])([CH3])[CH3])cc1
dose: 3.0 mg/kg/injection, schedule: Q01DX009 (ip), vehicle: saline
  survivor count: 10 of 10
dose: 6.0 mg/kg/injection, schedule: Q01DX009 (ip), vehicle: saline
  survivor count: 10 of 10
dose: 12.0 mg/kg/injection, schedule: Q01DX009 (ip), vehicle: saline
  survivor count: 7 of 10

## COc1cccc2c1C(=O)c1c(O)c3c(c(O)c1C2=O)C[C@@](O)(C(=O)CO)C[C@@H]3OC1CC(NCc2ccccc2)C(O)C(C)O1 (stereo not given in full)
dose: 3.75 mg/kg/injection, schedule: Q01DX001 (ip), vehicle: water
  T/C: 125 % of control
dose: 7.5 mg/kg/injection, schedule: Q01DX001 (ip), vehicle: water
  T/C: 130 % of control
dose: 60.0 mg/kg/injection, schedule: Q01DX001 (ip), vehicle: water
  survivor count: 1 of 10 and 8 of 10
dose: 120.0 mg/kg/injection, schedule: Q01DX001 (ip), vehicle: water
  survivor count: 0 of 10
dose: 240.0 mg/kg/injection, schedule: Q01DX001 (ip), vehicle: water
  survivor count: 0 of 10

## NNC(=O)c1ccncc1
[2]
  survivor count: 6 of 10
dose: 256.0 mg/kg/injection, schedule: Q01DX009 (ip), vehicle: saline
  survivor count: 1 of 10

## CC[C@@H](C)[C@@H]1NC(=O)C(NC(=O)C(CC(C)C)N(C)C(=O)C2CCCN2C(=O)C(C)O)C(C)OC(=O)C(Cc2ccc(OC)cc2)N(C)C(=O)C2CCCN2C(=O)C(CC(C)C)NC(=O)C(C)C(=O)C(C(C)C)OC(=O)C[C@H]1O (stereo not given in full)
dose: 20.0 micrograms/kg/injection, schedule: Q01DX009 (ip), vehicle: clinical formulation
  T/C: 140 % of control
dose: 20.0 micrograms/kg/injection, schedule: Q01DX009 (ip), vehicle: distilled water + alcohol
  T/C: 127 % of control
dose: 40.0 micrograms/kg/injection, schedule: Q01DX009 (ip), vehicle: clinical formulation
  T/C: 139 % of control
dose: 40.0 micrograms/kg/injection, schedule: Q01DX009 (ip), vehicle: distilled water + alcohol
  T/C: 127 % of control
dose: 80.0 micrograms/kg/injection, schedule: Q01DX009 (ip), vehicle: distilled water + alcohol
  T/C: 141 % of control

## C/C=C\C#N
[2]
  survivor count: 4 of 10

## COC1=C(N2CC2)C(=O)C(OC)=C(N2CC2)C1=O
[4]
  T/C: 132 % of control
  survivor count: 10 of 10
dose: 0.5 mg/kg/injection, schedule: Q01DX009 (ip), vehicle: saline with Tween-80
  T/C: 134 % of control
[5]
  T/C: 132 % of control
  survivor count: 10 of 10
dose: 1.3 mg/kg/injection, schedule: Q01DX009 (ip), vehicle: other
  T/C: 141 % of control
dose: 2.0 mg/kg/injection, schedule: Q01DX009 (ip), vehicle: other
  T/C: 149 % of control
dose: 2.0 mg/kg/injection, schedule: Q01DX009 (ip), vehicle: saline with Tween-80
  survivor count: 10 of 10
dose: 3.0 mg/kg/injection, schedule: Q01DX009 (ip), vehicle: other
  survivor count: 10 of 10
dose: 4.0 mg/kg/injection, schedule: Q01DX009 (ip), vehicle: other
  survivor count: 9 of 10 and 10 of 10
dose: 4.0 mg/kg/injection, schedule: Q01DX009 (ip), vehicle: saline with Tween-80
  survivor count: 10 of 10

## O=CC(NC(=O)N(CCCl)N=O)C(O)C(O)C(O)CO (stereo not given)
dose: 1.0 mg/kg/injection, schedule: Q01DX009 (ip), vehicle: saline
  T/C: 144 % of control
dose: 1.87 mg/kg/injection, schedule: Q01DX009 (ip), vehicle: saline
  T/C: 106 [9 of 10 alive], 111 [8 of 10 alive], 125, 181, 183, 188, 199, 208 % of control
dose: 1.88 mg/kg/injection, schedule: Q01DX009 (ip), vehicle: saline
  T/C: 142 % of control
dose: 2.0 mg/kg/injection, schedule: Q01DX009 (ip), vehicle: saline
  T/C: 147 % of control
dose: 3.75 mg/kg/injection, schedule: Q01DX009 (ip), vehicle: saline, evaluated on day 45
  T/C: 162 % of control
dose: 3.75 mg/kg/injection, schedule: Q01DX009 (ip), vehicle: saline, evaluated on day 60
  T/C: 126, 127, 160, 188, 213, 223, 279, 288 % of control
dose: 6.8 mg/kg/injection, schedule: Q01DX009 (ip), vehicle: saline
  T/C: 138 % of control
dose: 7.5 mg/kg/injection, schedule: Q01DX009 (ip), vehicle: saline, evaluated on day 45
  T/C: 241 % of control
dose: 7.5 mg/kg/injection, schedule: Q01DX009 (ip), vehicle: saline, evaluated on day 60
  T/C: 95 [9 of 10 alive], 137, 211, 230, 259, 331 % of control
dose: 7.5 mg/kg/injection, schedule: Q01DX009 (ip), vehicle: saline
  survivor count: 10 of 10
dose: 13.0 mg/kg/injection, schedule: Q01DX001 (ip), vehicle: saline
  T/C: 126 % of control
dose: 15.0 mg/kg/injection, schedule: Q01DX009 (ip), vehicle: saline
  survivor count: 8 of 10, 9 of 10, 10 of 10 (2×)
dose: 16.0 mg/kg/injection, schedule: Q01DX009 (ip), vehicle: saline
  survivor count: 10 of 10
dose: 30.0 mg/kg/injection, schedule: Q01DX009 (ip), vehicle: saline
  survivor count: 2 of 10, 5 of 10, 9 of 10 (2×), 10 of 10
dose: 32.0 mg/kg/injection, schedule: Q01DX009 (ip), vehicle: saline
  survivor count: 10 of 10
dose: 50.0 mg/kg/injection, schedule: Q01DX001 (ip), vehicle: saline
  survivor count: 8 of 10 on day 6
dose: 60.0 mg/kg/injection, schedule: Q01DX001 (ip), vehicle: saline with Tween-80
  survivor count: 10 of 10
dose: 67.0 mg/kg/injection, schedule: Q01DX001 (ip), vehicle: saline
  survivor count: 8 of 12
dose: 100.0 mg/kg/injection, schedule: Q01DX001 (ip), vehicle: saline
  survivor count: 1 of 10 on day 6
dose: 120.0 mg/kg/injection, schedule: Q01DX001 (ip), vehicle: saline with Tween-80
  survivor count: 3 of 10

## CCCCNC(=S)S
dose: 400.0 mg/kg/injection, schedule: Q01DX009 (ip), vehicle: other
  survivor count: 4 of 10
